Data taken from PubChem BioAssay AID1918985, deposited by NCATS (2023).

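KMS34 multiple myeloma cells exposed to library drugs for 48 hours, with viability measured as ATP luminescence using CellTiter-Glo. Each compound was run as a titration series of roughly 0.00003 to 92 µM. The value is the AC50 from a fitted dose-response curve; a lower value means a more potent drug. Calls come from Hill-fit curve class and a derived activity score: actives score 40 to 100, inconclusives 1 to 39, and inactives (class 4) 0.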

Values are in µM. Every entry below has the call inconclusive. Only part of the assay is shown, chiefly results filed as inconclusive. Potencies fitted to partial, single-point or poorly fitting curves are rough. The first word of each remark tells which way the curve ran; it can be opposite to the aim of the assay. Activity scores are not listed here.

| structure | Potency (µM) | curve |
|---|---|---|
| `COc1cc(NS(=O)(=O)c2ccc(N)cc2)nc(OC)n1` | 9.35 | rising, partial curve, poor fit |
| `CCn1cc(C(=O)O)c(=O)c2cc(F)c(N3CCNCC3)cc21` | 4.176 | cytotoxic, partial curve, poor fit |
| `Cc1c(NC(=O)OC[C@@H]2COCCN2)cn2ncnc(Nc3ccc4c(cnn4Cc4cccc(F)c4)c3)c12` | 20.93 | cytotoxic, partial curve, poor fit |
| `Cc1cc(Nc2ncnc3ccc(-c4ccc(CNCCS(C)(=O)=O)o4)cc23)ccc1Oc1ccn2ncnc2c1` | 20.93 | cytotoxic, partial curve, poor fit |
| `CC(C)Cn1cnc2c(N)nc3ccccc3c21` | 10.49 | cytotoxic, full curve, poor fit |
| `Cc1cc(Nc2ncc3c(n2)N(C)C(=O)N(c2cc(NC(=O)c4cccc(C(F)(F)F)c4)ccc2C)C3)n(C)n1` | 1.049 | cytotoxic, full curve, poor fit |
| `C[C@](Cc1c[nH]c2ccccc12)(NC(=O)OC1C2CC3CC(C2)CC1C3)C(=O)NC[C@H](NC(=O)CCC(=O)O)c1ccccc1` (stereo partly drawn) | 0.0042 | rising, full curve, poor fit |
| `COc1ccc2cc3[n+](cc2c1OC)CCc1cc2c(cc1-3)OCO2` | 4.686 | cytotoxic, partial curve |
| `Cc1cnn(C)c1C(=O)Nc1cc(Nc2ccc3c(C=Cc4ccccn4)n[nH]c3c2)ccc1F` | 58.99 | cytotoxic, partial curve, poor fit |
| `NC(=O)c1cccc2cn(-c3ccc([C@@H]4CCCNC4)cc3)nc12` | 20.93 | cytotoxic, partial curve, poor fit |
| `COC(=O)[C@@H]1[C@H]2C[C@@H]3c4[nH]c5ccccc5c4CCN3C[C@@H]2CC[C@@H]1O` | 0.001 | - |
| `COc1cc(C(=O)NS(=O)(=O)c2ccccc2C)ccc1Cc1cn(C)c2ccc(NC(=O)OC3CCCC3)cc12` | 26.35 | cytotoxic, partial curve, poor fit |
| `CCN(CC)CCCCNc1ncc2c(n1)N(C)C(=O)N(c1c(Cl)c(OC)cc(OC)c1Cl)C2` | 1.482 | cytotoxic, full curve, poor fit |

Some entries from above, unchanged:

Cc1cc(Nc2ncnc3ccc(-c4ccc(CNCCS(C)(=O)=O)o4)cc23)ccc1Oc1ccn2ncnc2c1 read Potency 20.93 µM (cytotoxic, partial curve, poor fit).
Cc1c(NC(=O)OC[C@@H]2COCCN2)cn2ncnc(Nc3ccc4c(cnn4Cc4cccc(F)c4)c3)c12 read Potency 20.93 µM (cytotoxic, partial curve, poor fit).